Earlier results, collected in patent publication US20110092579A1, “Solubilized formulation of docetaxel” (Scidose LLC, priority 2009, published 2011).

CC(=O)O[C@@]12CO[C@@H]1C[C@H](O)[C@@]1(C)C(=O)[C@H](O)C3=C(C)[C@@H](OC(=O)[C@H](O)[C@@H](NC(=O)OC(C)(C)C)c4ccccc4)C[C@@](O)([C@@H](OC(=O)c4ccccc4)[C@H]21)C3(C)C [docetaxel, (2R,3S)-N-carboxy-3-phenylisoserine, N-tert-butyl ester, 13-ester with 5beta-20-epoxy-1,2α,4,7β,10β,13α-hexahydroxytax-11-en-9-one 4-acetate 2-benzoate, trihydrate]
Solubility in water: practically insoluble in water
